According to the supplement of paper PMC11732987, “Enantioselective OTUD7B fragment discovery through chemoproteomics screening and high-throughput optimisation” (Communications Chemistry, 2025):
The other results are listed elsewhere or left out. The data scatter; read single values as rough.

Legend:
[1] = compound: ClCC(=O)N[C@@H]1CCCc2ccccc12; assay: log2 mean competition ratio of IA-DTB cysteine labelling (DMSO/compound) (log2 ratio); higher = stronger cysteine engagement by compound; conditions: treatment time: 4 h, cell line lysate: HEK293T
Protocol: (§1)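 IA-DTB competitive cysteine chemoproteomics in HEK293T RIPA lysate. Lysates were treated with compound 29 or 30 at 50 or 200 µM for 4 h, then IA-DTB (500 µM, 1 h), trypsin-digested, NeutrAvidin-enriched and analysed by diaPASEF. Competition ratio = intensity DMSO / intensity compound (n=4 treated, n=64 DMSO); binding: mean log2 CR ≥ 1 and p ≤ 0.05 plus QC filters. Target is the cysteine site.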

[2] = compound: ClCC(=O)N[C@H]1CCCc2ccccc12; assay: as above; conditions: treatment time: 4 h, cell line lysate: HEK293T
Protocol: as §1

Target | log2 mean competition ratio ([1]; 50 µM) | log2 mean competition ratio ([1]; 200 µM) | log2 mean competition ratio ([2]; 50 µM) | log2 mean competition ratio ([2]; 200 µM)
NOS1AP C168 (UniProt O75052) | 0.158 | -0.262 | -0.514 | -0.27
NIFK C118 (UniProt Q9BYG3) | 0.0369 | -0.0894 | -0.758 | -0.172
NCOA3 C627 (UniProt Q9Y6Q9) | 0.2 | 0.733 | 0.0244 | 0.0858
NFX1 C295 (UniProt Q12986) | 0.0212 | 0.0765 | -0.176 | 0.0757
NCAPG2 C1047 (UniProt Q86XI2) | -0.0634 | 0.04 | -0.122 | -0.279
NIFK C237 (UniProt Q9BYG3) | -0.242 | 0.319 | -0.098 | 0.254
NIBAN1 C516 (UniProt Q9BZQ8) | 0.352 | -0.24 | 0.162 | -0.32
NOP56 C142 (UniProt O00567) | -0.0845 | -0.171 | 0.383 | 0.0065
NOP58 C205 (UniProt Q9Y2X3) | 0.293 | 0.17 | 0.329 | 0.252
NFAT5 C108 (UniProt O94916) | -0.0659 | -0.147 | 0.0694 | -0.289
NF1 C324 (UniProt P21359) | -0.235 | 0.16 | -0.484 | -0.209
NIN C1619 (UniProt Q8N4C6) | -0.0725 | 0.0452 | 0.169 | 0.143
NELFB C23 (UniProt Q8WX92) | -0.0633 | -0.44 | -0.0203 | -0.159
NASP C84 (UniProt P49321) | 0.0382 | -0.0047 | 0.287 | 0.118
NOCT C136 (UniProt Q9UK39) | -0.0131 | -0.173 | -0.289 | -0.165
NDUFV1 C187 | 0.217 | 0.0536 | 0.483 | -0.073
NFATC2IP C232 (UniProt Q8NCF5) | -0.228 | -0.345 | -0.552 | -0.167
NOP10 C28 (UniProt Q9NPE3) | 0.371 | -0.343 | 0.24 | 0.157
NCOR1 C1274 (UniProt O75376) | -0.154 | 0.14 | -0.0516 | 0.264
NISCH C848 (UniProt Q9Y2I1) | 0.00315 | -0.112 | 0.13 | 0.0176
NFS1 C381 (UniProt Q9Y697) | 0.208 | -0.117 | 0.336 | -0.165
NOP56 C211 (UniProt O00567) | 0.245 | 0.337 | 0.298 | 0.283

Already shown: entries from further up.
Target | log2 mean competition ratio ([1]; 50 µM) | log2 mean competition ratio ([1]; 200 µM) | log2 mean competition ratio ([2]; 50 µM) | log2 mean competition ratio ([2]; 200 µM)
NELFB C23 (UniProt Q8WX92) | -0.0633 | -0.44 | -0.0203 | -0.159
NASP C84 (UniProt P49321) | 0.0382 | -0.0047 | 0.287 | 0.118
NOCT C136 (UniProt Q9UK39) | -0.0131 | -0.173 | -0.289 | -0.165
NDUFV1 C187 | 0.217 | 0.0536 | 0.483 | -0.073
NFATC2IP C232 (UniProt Q8NCF5) | -0.228 | -0.345 | -0.552 | -0.167
NOP10 C28 (UniProt Q9NPE3) | 0.371 | -0.343 | 0.24 | 0.157
NCOR1 C1274 (UniProt O75376) | -0.154 | 0.14 | -0.0516 | 0.264
NISCH C848 (UniProt Q9Y2I1) | 0.00315 | -0.112 | 0.13 | 0.0176
NFS1 C381 (UniProt Q9Y697) | 0.208 | -0.117 | 0.336 | -0.165

Remaining list, next part.

Target | log2 mean competition ratio ([1]; 50 µM) | log2 mean competition ratio ([1]; 200 µM) | log2 mean competition ratio ([2]; 50 µM) | log2 mean competition ratio ([2]; 200 µM)
NAV1 C1508 (UniProt Q8NEY1) | -0.161 | 0.119 | 0.0705 | 0.147
NEK1 C1223 (UniProt Q96PY6) | -0.262 | 0.0521 | -0.475 | 0.0612
NCAPD2 C1000 (UniProt Q15021) | 0.248 | -0.103 | -0.188 | -0.0587
NFKB2 C83 (UniProt Q00653) | 0.105 | -0.0449 | 0.427 | 0.408
NCDN C98 (UniProt Q9UBB6) | -0.0737 | 0.0433 | -0.252 | 0.0935
NDC1 C9 (UniProt Q9BTX1) | 0.465 | 0.113 | 0.292 | 0.0627
NCAPG C966 (UniProt Q9BPX3) | -0.224 | 0.0775 | -0.065 | -0.288
NBN C323 (UniProt O60934) | -0.039 | -0.366 | -0.201 | -0.36
NAT10 C105 (UniProt Q9H0A0) | 0.325 | -0.14 | 0.0975 | -0.251
NOMO3;NOMO2 C627;(C627) | 0.185 | -0.0245 | -0.479 | -0.359
NCOA3 C197 (UniProt Q9Y6Q9) | 0.51 | -0.0571 | 0.55 | -0.0749
NDUFS1 C727 (UniProt P28331) | -0.351 | -0.0831 | -0.184 | 0.297
NELFB C141 (UniProt Q8WX92) | -0.23 | -0.419 |  | -0.432
NMRK1 C125 (UniProt Q9NWW6) | -0.145 | -0.114 | -0.0485 | -0.0241
NOL8 C517 (UniProt Q76FK4) | 0.0284 | 0.18 | -0.0741 | 0.153
NDOR1 C507 (UniProt Q9UHB4) | 0.0617 | -0.478 | -0.097 | -0.54
NOMO3;NOMO2 C788;(C788) | 0.0867 | 0.141 | -0.185 | -0.167
NELFA_(C131,C131,C141,C141) (UniProt Q9H3P2) | -0.0963 | 0.611 | 0.255 | 0.354
NFXL1 C748 (UniProt Q6ZNB6) | -0.139 | 0.0722 | -0.0692 | 0.0917
NCOA2 C22 (UniProt Q15596) | -0.204 | -0.196 | -0.509 | -0.0883
NOL8 C259 (UniProt Q76FK4) | -0.14 | 0.135 | -0.123 | 0.155
